Taken from: PubChem BioAssay AID1224826 (NIAID, 2016)
This is an unselected part of about 17,000 reagents tested. About 1,110 of them (6.6%) count as active. 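Active means lowered or raised reporter signal; replicate intensities are raw and not normalised per plate.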 Unmarked entries are inactive. Not all columns of the deposit are shown.

Purpose: 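Knock-downs that raise or lower Tnf reporter signal after endotoxin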 (primary screen)
Cells: RAW264.7 G9 macrophages from mouse bearing reporters for p65 (GFP) and the Tnf promoter (mCherry)
Reagent: siRNA pool against mouse genes, 100 nM
Time to read-out: 16 h of LPS stimulation, after 2 days of siRNA transfection
Challenge: bacterial lipopolysaccharide (Salmonella minnesota R595), 10 ng/ml
Measured: 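Imaged Tnf reporter mCherry in nuclei, minus background, normalised per plate to the median and expressed as robust z-scores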
Scale: Tnf reporter robust z-score: higher = stronger Tnf promoter reporter signal after LPS
Call rule: 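Called active when robust z-score is at most -1.3, matching the median of the Tlr4 knock-down control, or over 3; control wells and wells with under 50 cells never active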
Calls: active = Tnf reporter clearly lowered or raised; inactive = no clear change in Tnf reporter

gene | Tnf reporter robust z-score | fewer than 50 cells in well
Prap1 (proline-rich acidic protein 1) | – | fewer than 50 cells per well; well left out of calls
Fxyd1 (FXYD domain-containing ion transport regulator 1) | -0.71 | enough cells in well
Vmn1r199 (vomeronasal 1 receptor 199) | 0.3 | enough cells in well
Ednrb (endothelin receptor type B) | 0.27 | enough cells in well
Clcnkb (chloride channel, voltage-sensitive Kb) | -0.56 | enough cells in well
Nt5e (5' nucleotidase, ecto) | -0.13 | enough cells in well
Taldo1 (transaldolase 1) | -0.97 | enough cells in well
Bcl2l2 (BCL2-like 2) | 0.21 | enough cells in well
Gc (vitamin D binding protein) | 0.75 | enough cells in well
Mt4 (metallothionein 4) | -0.21 | enough cells in well
Rtca (RNA 3'-terminal phosphate cyclase) | -0.97 | enough cells in well
Adam19 (ADAM metallopeptidase domain 19) | 1.04 | enough cells in well
Ttc24 (tetratricopeptide repeat domain 24) | 3.33 (active) | enough cells in well
Ifrd2 (interferon-related developmental regulator 2) | -1.04 | enough cells in well
Hacd1 (3-hydroxyacyl-CoA dehydratase 1) | 0.27 | enough cells in well
Or5v1 (olfactory receptor family 5 subfamily V member 1) | 0.42 | enough cells in well
Atp1b4 (ATPase Na+/K+ transporting, beta 4 polypeptide) | 0.31 | enough cells in well
Prkcd (protein kinase C, delta) | 1.12 | enough cells in well
Pcgf1 (polycomb group ring finger 1) | 0 | enough cells in well
Gfral (GDNF family receptor alpha like) | 1.22 | enough cells in well
Hacl1 (2-hydroxyacyl-CoA lyase 1) | -0.67 | enough cells in well
Or8g37 (olfactory receptor family 8 subfamily G member 37) | -0.89 | enough cells in well
Cct7 (chaperonin containing TCP1 subunit 7) | 2.36 | enough cells in well
Cend1 (cell cycle exit and neuronal differentiation 1) | -0.14 | enough cells in well
Elob (elongin B) | -0.75 | enough cells in well
Blvrb (biliverdin reductase B) | -0.18 | enough cells in well
Vps37a (vacuolar protein sorting 37A) | 0.01 | enough cells in well
Atp5mc3 (ATP synthase membrane subunit c locus 3) | 0.25 | enough cells in well
Smap2 (small ArfGAP 2) | – | fewer than 50 cells per well; well left out of calls
Alpi (alkaline phosphatase, intestinal) | – | fewer than 50 cells per well; well left out of calls
Pdgfa (platelet derived growth factor, alpha) | -0.12 | enough cells in well
Or8b12b (olfactory receptor family 8 subfamily B member 12B) | -0.29 | enough cells in well
Plod1 (procollagen-lysine, 2-oxoglutarate 5-dioxygenase 1) | -0.21 | enough cells in well
Tkfc (triokinase, FMN cyclase) | 0.01 | enough cells in well
Gfra2 | 0.77 | enough cells in well
Tmem9 (transmembrane protein 9) | – | fewer than 50 cells per well; well left out of calls
Bpifa2 (BPI fold containing family A, member 2) | -1.39 (active) | enough cells in well
Eipr1 (EARP complex and GARP complex interacting protein 1) | 1.12 | enough cells in well
Krt6b (keratin 6B) | -1.21 | enough cells in well
Plaur (plasminogen activator, urokinase receptor) | -0.75 | enough cells in well
Dlx3 (distal-less homeobox 3) | -0.72 | enough cells in well
Prf1 (perforin 1 (pore forming protein)) | -0.65 | enough cells in well
Wbp1l (WW domain binding protein 1 like) | -0.81 | enough cells in well
Cxcl14 (C-X-C motif chemokine ligand 14) | -0.03 | enough cells in well
Cdc6 (cell division cycle 6) | 0.71 | enough cells in well
Ctsb (cathepsin B) | 0.11 | enough cells in well
Lrrc56 (leucine rich repeat containing 56) | 0.09 | enough cells in well
Coq4 (coenzyme Q4) | -1.43 (active) | enough cells in well
Firrm (FIGNL1 interacting regulator of recombination and mitosis) | 0.81 | enough cells in well
Txnl4b (thioredoxin-like 4B) | 1.12 | enough cells in well
Smn1 (survival motor neuron 1) | -0.24 | enough cells in well
Qtrt1 (queuine tRNA-ribosyltransferase catalytic subunit 1) | 1 | enough cells in well
Tac2 (tachykinin 2) | -1.58 (active) | enough cells in well
Timm50 (translocase of inner mitochondrial membrane 50) | 0.58 | enough cells in well
Dock1 (dedicator of cytokinesis 1) | 0.08 | enough cells in well
Exosc5 (exosome component 5) | -0.01 | enough cells in well
Hmx3 (H6 homeobox 3) | -1.03 | enough cells in well
Zfp106 (zinc finger protein 106) | 0.05 | enough cells in well
Tmco1 (transmembrane and coiled-coil domains 1) | -0.5 | enough cells in well
Mau2 | – | fewer than 50 cells per well; well left out of calls
Tcf12 (transcription factor 12) | -0.97 | enough cells in well
Itgb3 (integrin beta 3) | -0.35 | enough cells in well
Vsig8 (V-set and immunoglobulin domain containing 8) | – | fewer than 50 cells per well; well left out of calls
Xlr3c (X-linked lymphocyte-regulated 3C) | 1.49 | enough cells in well
Gatm | -0.61 | enough cells in well
Zfp386 (zinc finger protein 386 (Kruppel-like)) | 1.75 | enough cells in well
Peli1 (pellino 1) | -1.3 (active) | enough cells in well
Ccl27a (C-C motif chemokine ligand 27A) | -0.05 | enough cells in well
Cdc25a (cell division cycle 25A) | -0.13 | enough cells in well
Nqo2 (N-ribosyldihydronicotinamide quinone reductase 2) | 1.73 | enough cells in well
Kcnj15 | 0.6 | enough cells in well
Sema6d | -1.2 | enough cells in well
Bcat2 (branched chain aminotransferase 2, mitochondrial) | 1.58 | enough cells in well
Scgb2b24 (secretoglobin, family 2B, member 24) | 0.92 | enough cells in well
Gatad2a (GATA zinc finger domain containing 2A) | 0.42 | enough cells in well

Reformatted: results already given.
Txnl4b (thioredoxin-like 4B)
- Tnf reporter robust z-score: 1.12
- fewer than 50 cells in well: enough cells in well

Smn1 (survival motor neuron 1)
- Tnf reporter robust z-score: -0.24
- fewer than 50 cells in well: enough cells in well

Qtrt1 (queuine tRNA-ribosyltransferase catalytic subunit 1)
- Tnf reporter robust z-score: 1
- fewer than 50 cells in well: enough cells in well

Tac2 (tachykinin 2)
- Tnf reporter robust z-score: -1.58 (active)
- fewer than 50 cells in well: enough cells in well

Timm50 (translocase of inner mitochondrial membrane 50)
- Tnf reporter robust z-score: 0.58
- fewer than 50 cells in well: enough cells in well

Dock1 (dedicator of cytokinesis 1)
- Tnf reporter robust z-score: 0.08
- fewer than 50 cells in well: enough cells in well

Exosc5 (exosome component 5)
- Tnf reporter robust z-score: -0.01
- fewer than 50 cells in well: enough cells in well

Hmx3 (H6 homeobox 3)
- Tnf reporter robust z-score: -1.03
- fewer than 50 cells in well: enough cells in well

Zfp106 (zinc finger protein 106)
- Tnf reporter robust z-score: 0.05
- fewer than 50 cells in well: enough cells in well

Tmco1 (transmembrane and coiled-coil domains 1)
- Tnf reporter robust z-score: -0.5
- fewer than 50 cells in well: enough cells in well

Mau2
- fewer than 50 cells in well: fewer than 50 cells per well; well left out of calls
